Drawing on paper PMC10447241 (Nature, 2023), this text covers binding for two substances.

Sequences of proteins named here, by UniProt entry; tags and fusion partners are left off. A change or cut given only in a name is not applied to a line headed by its entry. A line that says so, or that is headed by a name, gives the form on record, which may keep a tag or linker. Residues count along the entry.
wild-type GCGR with Rluc8 at the C terminus (P47871, residues 26-477): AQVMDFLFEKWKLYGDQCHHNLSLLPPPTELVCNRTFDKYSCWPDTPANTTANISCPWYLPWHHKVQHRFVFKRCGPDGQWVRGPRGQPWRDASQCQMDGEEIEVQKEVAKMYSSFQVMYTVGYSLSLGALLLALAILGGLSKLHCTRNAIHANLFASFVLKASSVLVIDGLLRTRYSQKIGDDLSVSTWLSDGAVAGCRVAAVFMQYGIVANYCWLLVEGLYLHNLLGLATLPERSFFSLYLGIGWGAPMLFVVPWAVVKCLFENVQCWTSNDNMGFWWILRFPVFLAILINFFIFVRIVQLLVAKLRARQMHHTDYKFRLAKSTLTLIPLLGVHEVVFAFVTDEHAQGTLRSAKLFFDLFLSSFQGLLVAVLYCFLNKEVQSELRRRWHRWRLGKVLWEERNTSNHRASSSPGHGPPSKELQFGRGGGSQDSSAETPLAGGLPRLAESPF
GCGR W425A with Rluc8 at the C terminus (P47871, form named): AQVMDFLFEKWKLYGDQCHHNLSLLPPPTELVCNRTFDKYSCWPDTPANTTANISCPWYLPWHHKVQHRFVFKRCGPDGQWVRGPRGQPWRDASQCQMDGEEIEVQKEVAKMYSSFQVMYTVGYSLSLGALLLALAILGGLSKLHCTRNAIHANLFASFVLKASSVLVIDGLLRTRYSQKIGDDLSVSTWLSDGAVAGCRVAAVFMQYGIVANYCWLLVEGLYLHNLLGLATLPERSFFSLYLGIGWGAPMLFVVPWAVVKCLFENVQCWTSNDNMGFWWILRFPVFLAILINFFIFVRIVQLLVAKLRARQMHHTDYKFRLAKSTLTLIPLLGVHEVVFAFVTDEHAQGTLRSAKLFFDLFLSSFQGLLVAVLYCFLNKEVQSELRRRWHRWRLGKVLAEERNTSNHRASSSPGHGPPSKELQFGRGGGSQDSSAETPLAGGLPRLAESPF
GCGR G165W with Rluc8 at the C terminus (P47871, form named): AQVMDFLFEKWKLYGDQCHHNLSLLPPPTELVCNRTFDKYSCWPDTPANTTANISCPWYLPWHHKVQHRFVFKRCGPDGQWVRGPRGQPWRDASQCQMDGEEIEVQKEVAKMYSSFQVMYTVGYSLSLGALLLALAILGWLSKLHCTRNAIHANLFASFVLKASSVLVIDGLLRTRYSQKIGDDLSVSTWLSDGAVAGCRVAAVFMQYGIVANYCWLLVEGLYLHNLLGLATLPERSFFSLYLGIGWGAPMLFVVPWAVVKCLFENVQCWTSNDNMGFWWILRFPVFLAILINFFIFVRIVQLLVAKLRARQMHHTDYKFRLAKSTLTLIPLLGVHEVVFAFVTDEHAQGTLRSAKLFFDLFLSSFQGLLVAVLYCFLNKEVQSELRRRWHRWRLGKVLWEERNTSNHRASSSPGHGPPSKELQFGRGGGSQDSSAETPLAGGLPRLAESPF
GCGR S167A with Rluc8 at the C terminus (P47871, form named): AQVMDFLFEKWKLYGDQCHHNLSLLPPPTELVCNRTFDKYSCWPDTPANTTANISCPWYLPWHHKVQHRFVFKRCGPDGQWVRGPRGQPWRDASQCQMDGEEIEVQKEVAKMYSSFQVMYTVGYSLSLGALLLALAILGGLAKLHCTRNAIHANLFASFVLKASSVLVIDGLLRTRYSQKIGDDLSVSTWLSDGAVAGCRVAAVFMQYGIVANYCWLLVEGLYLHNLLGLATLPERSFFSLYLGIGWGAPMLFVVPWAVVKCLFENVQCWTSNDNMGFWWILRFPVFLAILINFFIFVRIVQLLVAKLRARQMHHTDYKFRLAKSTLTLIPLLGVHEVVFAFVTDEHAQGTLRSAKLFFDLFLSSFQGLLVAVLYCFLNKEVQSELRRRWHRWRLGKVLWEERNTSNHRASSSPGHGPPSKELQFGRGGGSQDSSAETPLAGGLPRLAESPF
UniProt P49407: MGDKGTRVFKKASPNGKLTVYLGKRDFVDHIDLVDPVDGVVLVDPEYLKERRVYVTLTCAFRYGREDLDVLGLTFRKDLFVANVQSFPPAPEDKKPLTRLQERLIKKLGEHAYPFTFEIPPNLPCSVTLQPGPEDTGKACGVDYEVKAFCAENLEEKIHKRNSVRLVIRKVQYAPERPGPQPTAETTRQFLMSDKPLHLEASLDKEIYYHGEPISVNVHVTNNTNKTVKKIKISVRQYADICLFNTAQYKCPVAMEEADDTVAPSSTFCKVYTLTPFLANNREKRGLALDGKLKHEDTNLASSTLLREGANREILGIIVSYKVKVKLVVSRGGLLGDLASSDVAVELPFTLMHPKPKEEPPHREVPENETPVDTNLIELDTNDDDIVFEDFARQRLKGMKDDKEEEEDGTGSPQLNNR

What all share (experiment): FRET or BRET; GCGR–Rluc8 (or mutants) and βarr1–GFP2 (or mutants) co-transfected 1:1 in HEK293F cells; glucagon 1 pM to 10 μM; HBSS, 20 mM HEPES pH 7.4; coelenterazine 400a; EC50 is that of glucagon in inducing the BRET signal
Background: BRET reads energy transfer from a luciferase to a nearby fluorophore.

The target in assay [1] is GCGR W425A with Rluc8 at the C terminus (human) (UniProt P47871).
Assay [2] concerns the target GCGR G165W with Rluc8 at the C terminus (human) (UniProt P47871).
Assay [3] addresses GCGR S167A with Rluc8 at the C terminus (human) (UniProt P47871).
In assay [4] the target is wild-type GCGR with Rluc8 at the C terminus (human) (UniProt P47871).

These are yes or no findings as the source states them, for the method shown. Binding seen in cells or lysates may run through a third protein. Some results given as binding are weak or reduced against the parent protein; the word gives no strength.

Regarding “human βarr1 with GFP2 at the C terminus (from UniProt P49407 1-418)”, the binding result in assay [1] was “binds weakly”; in assay [2], “binds”; in assay [3], “binds”; in assay [4], “binds”.

Take “βarr1 R285A with GFP2 at the C terminus (from UniProt P49407 1-418)”: the binding result in assay [4] is “binds weakly”.
